We go through 41 compounds from PubChem BioAssay AID493014 (National Center for Advancing Translational Sciences (NCATS), 2011).

This is one part of the list. These are further read-outs of the screen, such as a control signal, another cell line or another target. No call is given for them. Compounds called inactive in the main read-out are mostly missing here. Words in brackets tell the shape of the fitted curve; partial curves, single points and poor fits give uncertain potencies.

The nature of this assay: qHTS Assay to Find Inhibitors of Chronic Active B-Cell Receptor Signaling. Particulars: ABC-DLBCL IkBa-CBG/CBR reporter, luminescence ratio (green luciferase fused to IkBa over red control in TMD8 lymphoma cells), 4 h. The method in brief:
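Cell line TMD8 (human ABC DLBCL), stably expressing tet-inducible CBG68-IkBa fusion and CBR; IMDM/0.5% FBS; cpd up to 46 uM; dox induction, 4 h, 37C/5% CO2; dual luminescence; green/red ratio; MG132 control.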

Where [1] appears, read: measured here: CBR red luminescence, cell number.
[2] abbreviates: measured here: IkBa-CBG green luminescence.

In general, AC50 refers to the midpoint of the concentration-response curve, whichever way the signal moves. Consider `COc1ccc(S(=O)(=O)NCC(c2ccco2)S(=O)(=O)c2ccc(C)cc2)cc1C` (stereo not drawn), for which the half-maximal activity concentration (AC50) under setting [1] is 20 µM [falling, partial curve, poor fit].

On to `Cc1ccc(S(=O)(=O)CCc2nc3ccccc3s2)cc1C`, for which the AC50 under setting [1] was 16.4 µM [rising, partial curve, poor fit].

For the compound `CCOc1cc(NC(=O)Nc2ccc(F)cc2)c(OCC)cc1NC(=O)CC`, under setting [1], the AC50 was 35.5 µM [rising, partial curve, poor fit].

`Cc1ccc2c(c1)-c1c(cnn1CC(=O)Nc1ccccc1N1CCN(C)CC1)CO2`: the AC50 under setting [1] was 16.4 µM [falling, partial curve, poor fit].

In the case of `COc1ccc(NC(=O)c2sc(SCc3ccccc3)nc2N)cc1`, the AC50 under setting [1] is 23.1 µM [falling, partial curve, poor fit].

For the compound `CCC(Oc1ccccc1)C(=O)Nc1cc(C(F)(F)F)ccc1N1CCOCC1` (stereo not drawn), the half-maximal activity concentration (AC50) under setting [1] was 3.66 µM [rising, single point].

As to `CC(C)OCCCN1C=C2C(=O)C(C)(OC(=O)CCc3ccccc3)C(=O)C=C2C=C1c1ccc(C#N)cc1` (stereo not drawn), the AC50 under setting [1] is 3.16 µM [falling, single point].

As to `O=C(NC1CCSc2ccccc21)c1ccccc1Br` (stereo not drawn), the AC50 under setting [1] was 11.2 µM [falling, single point].

With `Cc1ccc(NC(=O)CNS(=O)(=O)c2ccc(F)cc2)cc1C`, the concentration at half-maximal activity (AC50) under setting [1] is 1.12 µM [rising, partial curve, poor fit].

Turning to `Cc1ccc2n(n1)c(=O)c(Cc1ccccc1)c([O-])[n+]2-c1ccccc1`, under setting [1], the concentration at half-maximal activity (AC50) is 9.2 µM [rising, partial curve].

For the compound `COC(=O)c1ccccc1NC(=O)c1cc(-c2ccc(C)cc2)on1`, the half-maximal activity concentration (AC50) under setting [1] is 16.4 µM [falling, single point].

For `Clc1ccc(CCNc2ncnc3nc[nH]c23)cc1`, the half-maximal activity concentration (AC50) under setting [1] is 2.31 µM [falling, full curve, poor fit].

`N/C(=N\OC(=O)Cc1ccccc1)c1cccnc1`: the concentration at half-maximal activity (AC50) under setting [1] was 6.31 µM [falling, single point].

Take `O=C(CSc1ccc2ccccc2c1)Nc1nc2ccccc2[nH]1`: the AC50 runs as follows: under setting [1], 9.2 µM [rising, partial curve]; under setting [2], 4.11 µM [falling, single point].

`COc1cccc2[nH]c3c(=O)n(CCCN4CCOCC4)cnc3c12`: the AC50 under setting [1] was 7.94 µM [falling, partial curve, poor fit].

On to `O=C(NCC(c1ccc(F)cc1)N1CCOCC1)c1ccc(OCc2ccccc2)cc1` (stereo not drawn), for which the AC50 under setting [1] is 29.1 µM [falling, single point].

On to `COc1ccc(-n2cnc3sc(-c4ccccc4)cc3c2=O)cc1`, for which, under setting [1], the half-maximal activity concentration (AC50) is 0.316 µM [rising, full curve, poor fit].

Regarding `COc1cccc(NC(=O)COc2ncnc3sc(C)c(C)c23)c1`, the concentration at half-maximal activity (AC50) under setting [1] is 18.4 µM [falling, single point].

On to `Cc1cccn2c(=O)c(/C=C(\C#N)C(=O)NCc3ccco3)c(N3CCCC(C)C3)nc12` (stereo not drawn), for which the concentration at half-maximal activity (AC50) under setting [1] is 29.1 µM [falling, single point].

`CCN(CC)C(=O)COc1cc(C)cc2oc(=O)cc(-c3ccccc3)c12`: the half-maximal activity concentration (AC50) under setting [1] is 5.01 µM [rising, full curve, poor fit].

Consider `O=C(Nc1ccc(NC(=O)c2ccco2)nc1)c1cccnc1`, for which the AC50 under setting [1] was 9.2 µM [falling, partial curve].

Regarding `Cc1nc2ccccc2c(=O)n1-c1cccc(NS(=O)(=O)c2ccccc2)c1`, the AC50 under setting [1] is 29.1 µM [rising, single point].

Turning to `CC(CC1C(C#N)=C(N)OC2=C1C(=O)CCC2)c1ccccc1` (stereo not drawn), under setting [1], the concentration at half-maximal activity (AC50) is 20.6 µM [falling, single point].

With `CC(C)c1nnc(NC(=O)c2sc3ccccc3c2Cl)s1`, under setting [1], the AC50 is 8.91 µM [falling, partial curve, poor fit].

In the case of `CC(=O)Nc1sc(N/N=C/c2ccc(O)cc2)nc1-c1ccc(C)cc1`, the concentration at half-maximal activity (AC50) under setting [1] is 0.708 µM [falling, full curve, poor fit] and the half-maximal activity concentration (AC50) under setting [2] was 5.62 µM [rising, partial curve, poor fit].

Turning to `N/C(=N\OC(=O)Cc1ccccc1)c1ccccc1Cl`, under setting [1], the AC50 is 31.6 µM [rising, single point].

Take `COc1ccccc1C(=O)NC(=O)COC(=O)C1CCC1`: under setting [1], the AC50 is 1.64 µM [rising, full curve].

On to `O=C(CSc1nc2c(c(=O)n1-c1ccccc1)SCC2)NCC1CCCO1` (stereo not drawn), for which, under setting [1], the half-maximal activity concentration (AC50) was 35.5 µM [rising, single point].

Regarding `CC(=O)c1c(C)[nH]c(C(=O)OCC(=O)c2ccc3c(c2)NC(=O)CO3)c1C`, the AC50 under setting [1] was 5.8 µM [rising, full curve].

Consider `O=C(Nc1ccc(-c2nc3ccc(NC(=O)c4cccs4)cc3[nH]2)cc1)c1cccs1`, for which the concentration at half-maximal activity (AC50) under setting [1] is 20.6 µM [rising, partial curve].

Take `Cc1cccc(-n2nnc(C(=O)NCc3ccccn3)c2N)c1`: under setting [1], the half-maximal activity concentration (AC50) was 20.6 µM [falling, single point].

In the case of `O=C(CSc1ncnc2nc[nH]c12)c1ccccc1`, the concentration at half-maximal activity (AC50) under setting [1] was 18.4 µM [falling, single point].

Regarding `O=C(Nc1ccc(F)cc1)c1ccc(-n2cnnc2)cc1`, the concentration at half-maximal activity (AC50) under setting [1] is 22.4 µM [falling, single point].

With `Cc1ccc(NC(=O)CN2CCCC2c2cccn2C)cc1C` (stereo not drawn), the AC50 under setting [1] is 20.6 µM [falling, single point].

Take `CCC(CC)NC(=O)COC(=O)c1ccc(OCc2ccc(C(C)=O)cc2OC)c(OC)c1`: the AC50 under setting [1] was 29.1 µM [rising, single point].

As to `Cc1ccc(-c2cn3cccnc3n2)cc1NC(=O)c1ccc(Br)o1`, under setting [1], the concentration at half-maximal activity (AC50) was 8.2 µM [rising, partial curve, poor fit].

As to `COC(=O)c1cc(NC(=O)Nc2cccc(Cl)c2)ccc1Cl`, the half-maximal activity concentration (AC50) under setting [1] is 14.1 µM [falling, single point].

As for `CC(=O)COC(=O)C1=NN(c2ccccc2)C(=O)CC1`, the AC50 under setting [1] was 1.41 µM [rising, partial curve, poor fit].

As to `C=CCSc1ncnc2c1oc1nc3c(cc12)COC(C)(C)C3`, the AC50 under setting [1] is 6.31 µM [rising, single point].

With `COC(=O)c1ccc(CSc2nc3c(cnn3-c3ccccc3)c(=O)[nH]2)o1`, under setting [1], the AC50 was 11.6 µM [rising, partial curve].

With `O=C(O)c1ccccc1-c1cn2cc(Cl)ccc2n1`, the AC50 under setting [1] is 22.4 µM [falling, single point].
